Publication PMC6738495
These are yes or no findings as the source states them, for the method shown. Binding seen in cells or lysates may run through a third protein. A yes stands for co-enrichment or nearness to the bait. Other partners may have been found.

Target: mouse PrP (MoPrP) (mouse (endogenous in C57Bl/6 brain)) (UniProt P04925)
Assay: cross-linking + affinity purification with mass spectrometry

B1: ZIP6 (protein, UniProt Q8C145 21-765)
chain: LHELQSTAAFSQTTEKINSNWEPGVNVDLAVTMQRHHLQQLFYRYGENDSLSVEGFRKLLQNIGIDKIKRVHIHHDHEHHADHEHHSDHEHHSDHEHHSDHEHHSDHEHHSDHEHHSHRSHTVAGKNNRKAFCPDLDSDNSGKNPRTSLGKGSRPAEHMNGRRNIKESASSSEVTSAVYNAVSEGTRFVETIETPKPGRRTKDVNPSTPPSITEKSRVGRLSRLARKKSNESVSEPRKSFMYSRNTNDNIQECFNTTKLLTSHGMSIQALLNATEFNYLCPAIINQIDARACLIHTASEKKAEIPPKTYSLQIAWLGGFIAISIISFLSLLGVILVPLMNRVFFKFLLSFLVALAVGTLSGDALLHLLPHSHASHQHSHSHEEPAMEMKRGPLFSHLSAQNIEESSYFDSTWKGLTALGGLYFMFLVEHVLTLIKQFKDKKKKNQKKPENDEDVESKKQLSKYDSQLSSNEEKVDPGERPESYLRADSQEPSPFDSQQPTMLEEEEVMIAHAHPQEVYNEYVPRGCKNKCHSHFHDTLGQSDDLIHHHHDYHHILHHHHHQNHHPHSHSQRYSREELKDAGIATLAWMVIMGDGLHNFSDGLAIGAAFTEGLSSGLSTSVAVFCHELPHELGDFAVLLKAGMTVKQAVLYNALSAMLAYLGMATGIFIGHYAENVSMWIFALTAGLFMYVALVDMVPEMLHNDASDHGCSRWGYFFLQNAGILLGFGIMLLISIFEHKIVFRINF
- binding: binds

B2: ZIP10 (protein, UniProt Q6P5F6 26-833)
chain: HEDHDHGPEELHRHHRGMTESESSKFSVQDAENEKKYYIEKLFDRYGENGRLSFFGLEKLLTNLGLGEIKVVEINHEDLGHDHVSHLDILAVQEGKHFHSHTHQHFHNHLNAENHTTTSVTSKRNHKCDPEKEAAELPIKADDKHLHDRNHRFHHRHRLHHHLDHNTTRHVHNDSVAHSEHGEPGHSPSPETNKTQEQSEVKSVKVRRKEKGKRKKENSEVNTPGFLPNHDHSEQYEHNRVHKLDRVHSPGHPHAHLPEHSGHELGHGHQELDPDNEGELRHTRKREAPHVRKSAIYSTPSHKDQSEDDRQHECLNVTQLLKHFGLGPNSPISPDLFTYLCPALLYQIDSRLCIEHFDKLLVEDLNKDKTLVPEDKTNIGASAWICGIISITVISLLSLLGVILVPIINQGCFKFLLTFLVALAVGTMSGDALLHLLPHSQGGHDHSHQHTHGHGHSHGHESKEFLEEYDAVLKGLVALGGIYLLFIIEHCIRMFKHYKQQRGKQKWFMKQSTEESTIGRKLSDHKLNSTPDADWLQLKPLAGTDDSVVSEDRLNETELTDLEAQQESPPKNYLGVEEEKIMDHSHSDGLHTIHEHEVHVTSHNHHDEDKAVLRKHSHQWHHRHAHHSHGPCHSGSDLKETGIANIAWMVIMGDGIHNFSDGLAIGAAFSAGLTGGISTSIAVFCHELPHELGDFAVLLKAGMTVKQAIVYNLLSAMMAYIGMLIGTAVGQYANNITLWIFAITAGMFLYVALVDMLPEMLHGDGDHEEHGFCPVGQFILQNLGLLFGFAIMLVIALYEDKIVFDIQF
- binding: binds
